# PubChem BioAssay AID588590 (National Center for Advancing Translational Sciences (NCATS), 2011)
# Chains of the proteins cited; added tags and fusions are not shown. Lines headed by an entry give the natural chain unless they say otherwise; changes in a name come on top.
# UniProt Q9UNA4: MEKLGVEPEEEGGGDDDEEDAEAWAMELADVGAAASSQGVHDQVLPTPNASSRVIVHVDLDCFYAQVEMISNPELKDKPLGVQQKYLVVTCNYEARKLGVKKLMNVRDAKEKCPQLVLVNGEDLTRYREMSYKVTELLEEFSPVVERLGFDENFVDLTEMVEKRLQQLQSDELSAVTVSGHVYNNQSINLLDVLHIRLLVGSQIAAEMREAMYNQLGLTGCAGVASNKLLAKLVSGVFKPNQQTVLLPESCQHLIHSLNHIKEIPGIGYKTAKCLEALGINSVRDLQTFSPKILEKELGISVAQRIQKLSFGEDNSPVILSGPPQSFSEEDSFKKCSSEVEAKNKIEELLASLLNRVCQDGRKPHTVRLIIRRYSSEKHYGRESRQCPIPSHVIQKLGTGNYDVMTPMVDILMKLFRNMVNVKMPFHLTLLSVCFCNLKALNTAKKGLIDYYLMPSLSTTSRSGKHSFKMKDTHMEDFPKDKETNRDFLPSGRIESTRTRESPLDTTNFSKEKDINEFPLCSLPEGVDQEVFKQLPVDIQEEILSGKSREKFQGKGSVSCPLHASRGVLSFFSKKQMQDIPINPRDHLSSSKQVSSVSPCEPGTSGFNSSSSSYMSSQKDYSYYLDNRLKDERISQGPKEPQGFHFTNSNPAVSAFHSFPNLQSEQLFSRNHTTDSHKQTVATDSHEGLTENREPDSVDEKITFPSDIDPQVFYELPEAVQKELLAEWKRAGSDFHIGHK
# Several values for one entry are separate records, joined by “and”; a condition that tells them apart may be missing. Equal entries are not always repeated. In all, about 390,000 compounds went through this assay and about 4,000 (1%) were called active. This list was built around the results that the source calls inconclusive (neither active nor inactive); the mix of calls is not that of the screen. The call rests on the fitted dose curve; in most records, active means well fitted inhibition curve with a large enough effect; inconclusive means small, poorly fitted or top-dose-only effect, or another doubt; inactive means no such curve, though single readings can be large or run the other way. A potency beside an inconclusive call is a rough fit, not a confirmed value.
# Target: DNA polymerase iota (Homo sapiens) (UniProt Q9UNA4)
# Assay: qHTS for Inhibitors of Polymerase Iota
# Conditions: Pol iota fluorescent replication assay, 10 min; series mostly up to 115 µM
# Procedure, shortened: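 Fluorescent replication assay read twice, at 0 min and 10 min after adding 50 nM (final) substrate. Enzyme (10 nM) and compounds were first incubated 15 min at room temperature; enzyme-free buffer wells were negative controls.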
# Potency means the concentration at half of the fitted maximal effect.
row,Structure (SMILES),Potency
1,O=C(CN1CCCCC1)c1ccccc1,inactive
2,CN1C(=O)C(c2ccccc2)C(=O)N(C)C1=O,"inconclusive: 79.4 µM [inhibitor, single point]"
3,Cc1cc(C)nc(NS(=O)(=O)c2ccc(N=Cc3c(O)n(C)c(=O)n(C)c3=O)cc2)n1,inactive
4,Cc1ccc(-c2nc(N(C)C3CCN(C)CC3)c3ccccc3n2)cc1,"inconclusive: 28.2 µM [inhibitor, partial curve, poor fit]"
5,CCOc1ccccc1NC(=O)NCc1ccc2c(c1)CCN2C(=O)c1ccccc1,"inconclusive: 89.1 µM [inhibitor, single point]"
6,CN(N=O)c1cc(O)ccc1O,active: 2.24 µM and active: 11.2 µM
7,Cc1cccc(-c2nn3c(=O)cc(CN4CCN(C(=O)COc5ccc(Cl)cc5)CC4)nc3s2)c1,"inconclusive: 89.1 µM [inhibitor, partial curve, poor fit]"
8,N#CC1=C(N)Oc2c(c(=O)oc3ccccc23)C1c1cccnc1 (configuration not stated),"inconclusive: 39.8 µM [inhibitor, partial curve, poor fit]"
9,O=c1c2ccccc2nc(/C=C/c2ccccc2F)n1-c1cccc(O)c1,"inconclusive: 31.6 µM [inhibitor, single point]"
10,O=C(c1ccc(Cl)cc1)C1CCCN(Cc2ccc3c(c2)OCCO3)C1 (configuration not stated),"inconclusive: 89.1 µM [inhibitor, single point]"
11,COc1ccccc1CN1CCN(Cc2ccc(Cl)cc2)CC1,"inconclusive: 28.2 µM [inhibitor, partial curve, poor fit]"
12,C=CCn1c(O)c(/C(C)=N/NC(=S)Nc2ccccc2)c(=O)[nH]c1=O,"inconclusive: 35.5 µM [inhibitor, partial curve, poor fit]"
13,N#CCCn1cc(C=C2C(=O)NC(=O)NC2=O)c(-c2ccccc2)n1,"inconclusive: 17.8 µM [inhibitor, partial curve]"
14,CCN(CC)c1ccc(/C=C2/C(=O)NC(=O)N(CC3CCCO3)C2=O)cc1 (configuration not stated),"inconclusive: 17.8 µM [inhibitor, partial curve, poor fit]"
15,COC(=O)N(c1ccccc1)P1(=S)OCCO1,"inconclusive: 39.8 µM [inhibitor, single point]"
16,CC(C)N1C(=O)/C(=C/C=C/c2ccco2)C(=O)N(Cc2ccco2)C1=O,"inconclusive: 31.6 µM [inhibitor, full curve, poor fit]"
17,O=C(c1ccccc1)c1cn(CC(=O)N2CCOCC2)c2ccccc12,"inconclusive: 35.5 µM [inhibitor, single point]"
18,Cc1cc(OCC(=O)NCC2CCC(C(=O)O)CC2)c2c3c(c(=O)oc2c1)CCC3 (configuration not stated),"inconclusive: 39.8 µM [inhibitor, single point]"
19,COc1ccc(-n2c(O)c(/C=C3\C=Nc4ccc(Br)cc43)c(=O)[nH]c2=O)c(OC)c1,"inconclusive: 12.6 µM [inhibitor, partial curve, poor fit]"
20,O=C(O)c1[nH]n(-c2ccc(S(=O)(=O)O)cc2)c(=O)c1N=Nc1ccc(S(=O)(=O)O)cc1,"inconclusive: 100 µM [inhibitor, single point]"
21,CC(C)C(=O)c1cn(Cc2ccc(C#N)cc2)c2ccccc12,"inconclusive: 15.8 µM [inhibitor, full curve, poor fit]"

# An excerpt from above in order of SMILES length, smallest number first.
row,Structure (SMILES),Potency
2,CN1C(=O)C(c2ccccc2)C(=O)N(C)C1=O,"inconclusive: 79.4 µM [inhibitor, single point]"
8,N#CC1=C(N)Oc2c(c(=O)oc3ccccc23)C1c1cccnc1 (configuration not stated),"inconclusive: 39.8 µM [inhibitor, partial curve, poor fit]"
9,O=c1c2ccccc2nc(/C=C/c2ccccc2F)n1-c1cccc(O)c1,"inconclusive: 31.6 µM [inhibitor, single point]"

# Continuation.

row,Structure (SMILES),Potency
1,CC(C)(C)N1C(=O)NC(=O)/C(=C\c2ccc3c(c2)CCN3CCCCl)C1=O,"inconclusive: 14.1 µM [inhibitor, partial curve, poor fit]"
2,Cc1ccc(OCCOc2cccc(C=C3C(=O)NC(=O)NC3=O)c2)c(C)c1,"inconclusive: 39.8 µM [inhibitor, single point]"
3,Brc1c(Br)c(Br)c2n[nH]nc2c1Br,"inconclusive: 31.6 µM [inhibitor, single point]"
4,CCCN1CCCC2Cc3[nH]ncc3CC21 (configuration not stated),inactive
5,C[C@]12N[C@H](Cc3ccccc31)c1ccccc12,"inconclusive: 39.8 nM [inhibitor, full curve, poor fit] and inconclusive: 79.4 µM [inhibitor, single point]"
6,FC(F)(F)c1cccc(C2NCc3ccccc3-n3cccc32)c1 (configuration not stated),"inconclusive: 56.2 µM [inhibitor, partial curve, poor fit]"
7,COc1ccc(OC)c(N2C(=O)/C(=C/c3ccco3)C(=O)NC2=S)c1,"inconclusive: 1.26 µM [inhibitor, full curve, poor fit]"
8,Oc1cc(Cl)ccc1Oc1ccc(Cl)cc1Cl,"inconclusive: 63.1 µM [inhibitor, partial curve, poor fit]"
9,CCN(CC)c1ccc(/C=C2\C(=O)NC(=S)N(c3ccc(OC)cc3OC)C2=O)o1,inactive
10,O=C(Nc1ccc(Cl)cc1C(=O)c1ccccc1)c1ccc(Br)o1,"inconclusive: 39.8 µM [inhibitor, single point]"
11,COc1cc(C=C2C(=O)NC(=O)NC2=O)ccc1OCc1ccc([N+](=O)[O-])cc1,inactive
12,Cc1ccc(-c2cc(-c3ccc(C)cc3)[n+](-c3ccccc3)c(-c3ccc(C)cc3)c2)cc1,"inconclusive: 11.2 µM [inhibitor, full curve, poor fit]"
13,CCOC(=O)c1cc2c(cn1)[C@H](CCO)NC2,"inconclusive: 1.41 µM [inhibitor, full curve, poor fit]"
14,O=C1NC(=S)NC(=O)C1=Cc1ccc(OCc2ccccc2)cc1,inactive
15,CCOc1cc(/C=C2/C(=O)NC(=O)N(c3ccc(CC)cc3)C2=O)ccc1OC(=O)c1cccs1,inactive
16,Cc1cc(/C=C2\C(=O)NC(=O)N(c3ccc(Br)cc3)C2=O)c(C)n1C,"inconclusive: 20 µM [inhibitor, partial curve, poor fit]"
17,Cc1ccccc1N1C(=O)NC(=O)/C(=C\c2ccc3c(c2)CCCN3Cc2ccccc2)C1=O,"inconclusive: 22.4 µM [inhibitor, full curve, poor fit]"
18,O=c1oc(Cl)c(Cl)c2ccccc12,"inconclusive: 31.6 µM [inhibitor, partial curve, poor fit]"
19,O=c1c2ccccc2nc(CSc2ncnc3nc[nH]c23)n1-c1ccccc1Cl,inactive
20,CC(=O)c1cccc(NC2=NCC(C)S2)c1 (configuration not stated),"inconclusive: 0.708 µM [inhibitor, full curve, poor fit]"
21,O=C1NC(=S)NC(=O)C1=Cc1ccc2c(c1)CCN2CCCCl,"inconclusive: 6.31 µM [inhibitor, full curve, poor fit]"
